Results as given in paper PMC3694860.
No constants are given. Whether binding was seen depends on the method and setting. Binding seen in cells or lysates may run through a third protein. Here binding means that the protein was enriched with, or labelled near, the bait; the list need not be complete.

Sequences of proteins named here, by UniProt entry; tags and fusion partners are left off.
UniProt P08238: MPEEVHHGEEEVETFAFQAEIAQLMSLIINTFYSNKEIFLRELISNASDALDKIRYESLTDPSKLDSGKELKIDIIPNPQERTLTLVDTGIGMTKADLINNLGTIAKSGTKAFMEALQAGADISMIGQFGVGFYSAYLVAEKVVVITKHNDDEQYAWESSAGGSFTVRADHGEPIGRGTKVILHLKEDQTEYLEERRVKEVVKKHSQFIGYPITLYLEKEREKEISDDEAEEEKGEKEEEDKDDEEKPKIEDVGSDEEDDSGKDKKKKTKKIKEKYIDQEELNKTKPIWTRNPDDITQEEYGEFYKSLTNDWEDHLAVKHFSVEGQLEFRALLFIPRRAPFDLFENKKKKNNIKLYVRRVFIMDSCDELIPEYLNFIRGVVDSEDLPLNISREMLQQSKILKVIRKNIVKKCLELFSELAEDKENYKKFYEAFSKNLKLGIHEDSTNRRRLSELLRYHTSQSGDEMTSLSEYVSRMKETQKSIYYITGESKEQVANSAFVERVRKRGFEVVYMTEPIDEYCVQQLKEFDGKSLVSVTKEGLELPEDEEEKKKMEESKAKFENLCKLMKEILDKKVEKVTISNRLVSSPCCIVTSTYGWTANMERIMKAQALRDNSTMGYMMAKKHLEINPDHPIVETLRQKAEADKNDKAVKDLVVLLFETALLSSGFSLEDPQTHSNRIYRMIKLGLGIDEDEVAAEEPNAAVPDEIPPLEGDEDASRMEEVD
UniProt P09874: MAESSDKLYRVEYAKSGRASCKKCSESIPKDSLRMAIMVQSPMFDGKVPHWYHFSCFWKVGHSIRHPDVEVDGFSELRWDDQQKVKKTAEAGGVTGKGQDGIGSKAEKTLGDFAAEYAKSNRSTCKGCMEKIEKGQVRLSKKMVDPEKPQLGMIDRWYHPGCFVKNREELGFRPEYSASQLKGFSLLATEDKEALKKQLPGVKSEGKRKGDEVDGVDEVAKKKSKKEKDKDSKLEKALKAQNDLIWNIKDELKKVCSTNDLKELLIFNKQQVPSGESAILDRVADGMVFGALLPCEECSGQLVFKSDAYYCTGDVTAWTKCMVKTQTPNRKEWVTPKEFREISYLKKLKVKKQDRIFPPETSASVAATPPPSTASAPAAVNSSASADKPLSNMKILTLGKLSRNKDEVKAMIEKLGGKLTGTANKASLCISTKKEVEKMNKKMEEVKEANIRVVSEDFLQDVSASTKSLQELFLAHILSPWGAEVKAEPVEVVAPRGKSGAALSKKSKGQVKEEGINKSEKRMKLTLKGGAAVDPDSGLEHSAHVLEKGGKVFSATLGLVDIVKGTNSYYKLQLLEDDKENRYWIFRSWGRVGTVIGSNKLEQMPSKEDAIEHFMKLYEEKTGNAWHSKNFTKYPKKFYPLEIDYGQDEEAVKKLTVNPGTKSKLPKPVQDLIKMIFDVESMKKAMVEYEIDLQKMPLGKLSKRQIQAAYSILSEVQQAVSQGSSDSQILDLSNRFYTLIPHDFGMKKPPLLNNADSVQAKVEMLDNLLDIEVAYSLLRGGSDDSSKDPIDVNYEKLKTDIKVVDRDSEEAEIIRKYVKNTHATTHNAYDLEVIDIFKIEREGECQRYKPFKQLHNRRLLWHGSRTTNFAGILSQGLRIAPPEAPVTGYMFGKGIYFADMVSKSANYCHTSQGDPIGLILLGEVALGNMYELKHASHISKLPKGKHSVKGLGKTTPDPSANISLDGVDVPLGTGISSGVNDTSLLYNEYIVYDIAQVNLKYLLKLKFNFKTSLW
UniProt Q92841: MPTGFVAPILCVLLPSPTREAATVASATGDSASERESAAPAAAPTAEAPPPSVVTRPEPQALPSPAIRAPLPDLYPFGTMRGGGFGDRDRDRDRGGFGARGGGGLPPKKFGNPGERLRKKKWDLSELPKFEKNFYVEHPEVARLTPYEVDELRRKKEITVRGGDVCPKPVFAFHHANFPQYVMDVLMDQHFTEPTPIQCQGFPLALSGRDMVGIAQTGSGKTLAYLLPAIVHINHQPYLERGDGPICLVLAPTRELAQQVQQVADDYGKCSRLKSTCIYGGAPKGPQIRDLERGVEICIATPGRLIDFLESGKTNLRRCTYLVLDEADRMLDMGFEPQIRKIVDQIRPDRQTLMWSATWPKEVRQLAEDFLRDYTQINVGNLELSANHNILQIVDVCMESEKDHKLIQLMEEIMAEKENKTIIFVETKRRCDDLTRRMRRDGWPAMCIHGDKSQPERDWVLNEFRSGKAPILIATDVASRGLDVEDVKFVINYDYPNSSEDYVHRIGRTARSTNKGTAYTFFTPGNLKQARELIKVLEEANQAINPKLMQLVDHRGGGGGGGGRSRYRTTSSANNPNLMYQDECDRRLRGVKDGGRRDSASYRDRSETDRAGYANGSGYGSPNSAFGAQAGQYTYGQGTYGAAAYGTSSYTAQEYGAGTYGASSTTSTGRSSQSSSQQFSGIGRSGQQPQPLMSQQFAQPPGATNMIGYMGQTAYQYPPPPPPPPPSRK

B1: nuclear factor associated with dsRNA (NFAR-2) (protein, UniProt Q12906-1 1-894)
chain: MRPMRIFVNDDRHVMAKHSSVYPTQEELEAVQNMVSHTERALKAVSDWIDEQEKGSSEQAESDNMDVPPEDDSKEGAGEQKTEHMTRTLRGVMRVGLVAKGLLLKGDLDLELVLLCKEKPTTALLDKVADNLAIQLAAVTEDKYEILQSVDDAAIVIKNTKEPPLSLTIHLTSPVVREEMEKVLAGETLSVNDPPDVLDRQKCLAALASLRHAKWFQARANGLKSCVIVIRVLRDLCTRVPTWGPLRGWPLELLCEKSIGTANRPMGAGEALRRVLECLASGIVMPDGSGIYDPCEKEATDAIGHLDRQQREDITQSAQHALRLAAFGQLHKVLGMDPLPSKMPKKPKNENPVDYTVQIPPSTTYAITPMKRPMEEDGEEKSPSKKKKKIQKKEEKAEPPQAMNALMRLNQLKPGLQYKLVSQTGPVHAPIFTMSVEVDGNSFEASGPSKKTAKLHVAVKVLQDMGLPTGAEGRDSSKGEDSAEETEAKPAVVAPAPVVEAVSTPSAAFPSDATAEQGPILTKHGKNPVMELNEKRRGLKYELISETGGSHDKRFVMEVEVDGQKFQGAGSNKKVAKAYAALAALEKLFPDTPLALDANKKKRAPVPVRGGPKFAAKPHNPGFGMGGPMHNEVPPPPNLRGRGRGGSIRGRGRGRGFGGANHGGYMNAGAGYGSYGYGGNSATAGYSQFYSNGGHSGNASGGGGGGGGGSSGYGSYYQGDNYNSPVPPKHAGKKQPHGGQQKPSYGSGYQSHQGQQQSYNQSPYSNYGPPQGKQKGYNHGQGSYSYSNSYNSPGGGGGSDYNYESKFNYSGSGGRSGGNSYGSGGASYNPGSHGGYGGGSGGGSSYQGKQGGYSQSNYNSPGSGQNYSGPPSSYQSSQGGYGRNADHSMNYQYR
B2: heterogeneous nuclear ribonucleoprotein M (hnRNP M) (protein, UniProt P52272 1-730)
chain: MAAGVEAAAEVAATEIKMEEESGAPGVPSGNGAPGPKGEGERPAQNEKRKEKNIKRGGNRFEPYANPTKRYRAFITNIPFDVKWQSLKDLVKEKVGEVTYVELLMDAEGKSRGCAVVEFKMEESMKKAAEVLNKHSLSGRPLKVKEDPDGEHARRAMQKVMATTGGMGMGPGGPGMITIPPSILNNPNIPNEIIHALQAGRLGSTVFVANLDYKVGWKKLKEVFSMAGVVVRADILEDKDGKSRGIGTVTFEQSIEAVQAISMFNGQLLFDRPMHVKMDERALPKGDFFPPERPQQLPHGLGGIGMGLGPGGQPIDANHLNKGIGMGNIGPAGMGMEGIGFGINKMGGMEGPFGGGMENMGRFGSGMNMGRINEILSNALKRGEIIAKQGGGGGGGSVPGIERMGPGIDRLGGAGMERMGAGLGHGMDRVGSEIERMGLVMDRMGSVERMGSGIERMGPLGLDHMASSIERMGQTMERIGSGVERMGAGMGFGLERMAAPIDRVGQTIERMGSGVERMGPAIERMGLSMERMVPAGMGAGLERMGPVMDRMATGLERMGANNLERMGLERMGANSLERMGLERMGANSLERMGPAMGPALGAGIERMGLAMGGGGGASFDRAIEMERGNFGGSFAGSFGGAGGHAPGVARKACQIFVRNLPFDFTWKMLKDKFNECGHVLYADIKMENGKSKGCGVVKFESPEVAERACRMMNGMKLSGREIDVRIDRNA

These molecules were tested against T1, NS1-binding protein (NS1-BP) (human (endogenous in HeLa and A549)) (UniProt Q9Y6Y0).
T1 sequence: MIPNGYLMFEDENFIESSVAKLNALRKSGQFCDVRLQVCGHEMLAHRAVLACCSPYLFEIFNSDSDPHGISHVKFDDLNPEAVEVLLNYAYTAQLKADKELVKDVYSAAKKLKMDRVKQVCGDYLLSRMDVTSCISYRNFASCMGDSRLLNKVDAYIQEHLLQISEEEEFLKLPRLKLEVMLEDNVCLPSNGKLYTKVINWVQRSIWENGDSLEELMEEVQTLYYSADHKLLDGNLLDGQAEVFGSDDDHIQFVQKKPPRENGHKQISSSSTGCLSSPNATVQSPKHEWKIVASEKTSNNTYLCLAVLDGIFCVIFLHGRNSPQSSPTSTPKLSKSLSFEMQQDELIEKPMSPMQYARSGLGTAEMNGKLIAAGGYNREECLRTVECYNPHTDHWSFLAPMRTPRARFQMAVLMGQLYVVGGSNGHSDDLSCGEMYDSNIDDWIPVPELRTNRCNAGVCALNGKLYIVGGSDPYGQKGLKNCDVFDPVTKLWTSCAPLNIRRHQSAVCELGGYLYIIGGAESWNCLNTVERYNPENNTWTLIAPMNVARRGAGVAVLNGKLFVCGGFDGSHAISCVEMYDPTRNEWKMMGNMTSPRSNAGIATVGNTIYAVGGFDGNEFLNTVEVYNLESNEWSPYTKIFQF

binding, binds:
Hsp70 (from UniProt P11142-1 1-646)
Hsp90 (from UniProt P08238 1-724)
nuclear cap binding protein (human (endogenous in HeLa))
poly (ADP-ribose) polymerase (PARP-1) (from UniProt P09874 1-1014)
polyadenylate-binding protein 4 (from UniProt Q13310-1 1-644)
B1

Target: T1, NS1-binding protein (NS1-BP) (human (endogenous in HeLa and A549))
Remark: another data set of the same source

binding, binds:
DDX17 (from UniProt Q92841 1-729)
B2

Target: T1, NS1-binding protein (NS1-BP) (human (endogenous in HeLa and A549))
Remark: another data set of the same source

binding, binds:
heterogeneous nuclear ribonucleoprotein K (hnRNP K) (from UniProt P61978 1-463)
